Drawing on paper PMC7819943, “Rice protein-binding microarrays: a tool to detect cis-acting elements near promoter regions in rice”, this text covers binding signal for 42 sequences.

The list shows a part of the results.

In the assay the target is T1, OsSMF1 (Oryza sativa, UniProt Q6ZLB0 1-436).
T1 sequence: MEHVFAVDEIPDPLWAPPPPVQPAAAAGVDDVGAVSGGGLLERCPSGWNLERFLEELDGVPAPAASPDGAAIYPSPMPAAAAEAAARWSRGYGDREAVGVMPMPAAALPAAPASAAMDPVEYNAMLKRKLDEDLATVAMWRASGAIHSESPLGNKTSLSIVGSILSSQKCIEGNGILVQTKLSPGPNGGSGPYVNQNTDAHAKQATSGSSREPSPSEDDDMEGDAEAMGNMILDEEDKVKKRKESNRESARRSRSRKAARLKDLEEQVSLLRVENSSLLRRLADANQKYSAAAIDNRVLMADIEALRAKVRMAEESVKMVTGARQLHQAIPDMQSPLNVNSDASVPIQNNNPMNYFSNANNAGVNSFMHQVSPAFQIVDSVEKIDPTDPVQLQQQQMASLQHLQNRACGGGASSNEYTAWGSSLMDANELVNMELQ
Nature of the assay: protein-binding microarray (RPBM); PBS, 2% BSA, 51.3 ng/ul salmon testes DNA, 50 uM zinc acetate, 200 nM TF, 25 C, 1 h; high values mean tight binding. As to conditions: protein: recombinant; tags: N-terminal polyhistidine and DsRed monomer fusion (pET32a); chain copies: 2; label: CyDye5-dUTP incorporated in the synthesized complementary strand; 3' TTTTT single-stranded linker to array surface; dsDNA, one strand shown. The procedure, abridged: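 Using Ni–NTA, transcription factors fused N-terminally to polyhistidine and DsRed were purified after expression in E. coli BL21-CodonPlus. These were incubated at 200 nM with a blocked, double-stranded custom Agilent array for 1 h at 25 °C in a buffer containing 50 µM zinc acetate, and the array was washed. The binding signal is per-feature fluorescence intensity (arbitrary units) on an Axon 4000B scanner.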
For “TGCTACATAAGTGACACGTCAACACCACGTTGTATAAAGACGGAGTCACCTAGTGCAG”, the binding signal is 53700 fluorescence intensity (a.u.). As for “ATGCATTCTACGATGCAAAGGTCCACGCACACGTCAGAACCGGAGTCACCTAGTGCAG”, the binding signal was 11700 fluorescence intensity (a.u.).

Consider “TAATTGAACTAGCAGCAAACTGTGGCTGACGCTGACCTGCCGGAGTCACCTAGTGCAG”, for which the binding signal was 5580 fluorescence intensity (a.u.). The same measure for “TGTGTTCAACTATTGCACTACCTCCCTCCTAGTTCGAATCCGGAGTCACCTAGTGCAG”: 8920 fluorescence intensity (a.u.); for “GGCGGCGATGGCGGCCGTGCTGACGGACGATTTCCTGCTCCGGAGTCACCTAGTGCAG”: 3220 fluorescence intensity (a.u.); for “AAGCCGTCTACCACTCACTTGGCCTCCATCGCTCTCTGCTCGGAGTCACCTAGTGCAG”: 28300 fluorescence intensity (a.u.).

With “CTCCCTAGCGGCTATGGCCACGCCTCGAGCACCTGATCGACGGAGTCACCTAGTGCAG”, the binding signal is 3780 fluorescence intensity (a.u.). Take “GATGTTGGCCATCCGGCTGGTGACGTTCACCGTCTCGTCGCGGAGTCACCTAGTGCAG”: the binding signal is 6450 fluorescence intensity (a.u.).

Turning to “GATAGTAGTAGTCCACCGTACATAATTATTCTCACACCATCGGAGTCACCTAGTGCAG”, the binding signal is 26900 fluorescence intensity (a.u.). As for “CATGACTGAAGTGTGACGTGACAAAGCGAAGCAATCAACCCGGAGTCACCTAGTGCAG”, the binding signal is 6000 fluorescence intensity (a.u.). Regarding “ATGCCCATAGAAAATAAAATATATTATTTGTCTCTATCTCCGGAGTCACCTAGTGCAG”, the binding signal was 27900 fluorescence intensity (a.u.). Consider “GCCTAACTGAGTTGGAGAAGGCACAGTCAAGTGTTAAGGACGGAGTCACCTAGTGCAG”, for which the binding signal was 3150 fluorescence intensity (a.u.).

As for “ACTGACGGAGTGGAAGCCTCGCTTCATGATTTTCTAAGGGCGGAGTCACCTAGTGCAG”, the binding signal was 3140 fluorescence intensity (a.u.). The same measure for “GAGGGCTGCCGCCGTTGCCAGCAGAGCTGGCAGGGAGCACCGGAGTCACCTAGTGCAG”: 19300 fluorescence intensity (a.u.); for “GGTATTACTGACTGGATTACCATGTGTGCGTCACATCGGACGGAGTCACCTAGTGCAG”: 8530 fluorescence intensity (a.u.); for “GCCCAGAGGCATATGCGTGCGTGGCACCGCGCGGCACTCCCGGAGTCACCTAGTGCAG”: 18200 fluorescence intensity (a.u.). In the case of “CAGATGCAGTACTCTACTCTCTCTTCTCCACTGCTCTCCCCGGAGTCACCTAGTGCAG”, the binding signal was 3260 fluorescence intensity (a.u.). “ATTAATCATGCGCTGATGACTCACCTCGTTTTGCGTATTTCGGAGTCACCTAGTGCAG”: the binding signal was 15900 fluorescence intensity (a.u.).

Take “CGAGACCACGACCAGTGGAAGCATCACTGCCTCACTGGCTCGGAGTCACCTAGTGCAG”: the binding signal is 6430 fluorescence intensity (a.u.). Regarding “CTTACCGCCTTCCACGCGCGGTCGTCATCGTTGCGAGCCGCGGAGTCACCTAGTGCAG”, the binding signal was 5900 fluorescence intensity (a.u.). With “CGCTATTTCGATGCCGTTGTCACAATGTCCTGGTTAGTCACGGAGTCACCTAGTGCAG”, the binding signal is 23700 fluorescence intensity (a.u.).

Consider “CTATCGGCTTGAAACCGCCGCACCGTGCACTTGCCGCCAGCGGAGTCACCTAGTGCAG”, for which the binding signal is 37300 fluorescence intensity (a.u.). With “GGCTCATCTCTCCCATCCTGGCTTAGTTTGATCTGGTTGACGGAGTCACCTAGTGCAG”, the binding signal was 3380 fluorescence intensity (a.u.). Regarding “GAAACGACGCTGACGAGTTTCACCAGGATGAAACTCTTTCCGGAGTCACCTAGTGCAG”, the binding signal is 3800 fluorescence intensity (a.u.).

Consider “GTATGTCAAGTATGTGTGGGCGTCATGCACGCATGCGTGCCGGAGTCACCTAGTGCAG”, for which the binding signal is 5150 fluorescence intensity (a.u.). “TATCTATGTCATCCGCAGCCGCAGGCTGACGCGAGAGGAGCGGAGTCACCTAGTGCAG”: the binding signal was 4040 fluorescence intensity (a.u.). In the case of “ACGCCCTACACCGCACACTCTTCTGCACGCATAGTAGCTGCGGAGTCACCTAGTGCAG”, the binding signal is 3440 fluorescence intensity (a.u.). For the sequence “CTGGAACTAAAGTTGTGCCAAACAGACCTTAAATTTAGGACGGAGTCACCTAGTGCAG”, the binding signal is 20800 fluorescence intensity (a.u.). For the sequence “ATGTCAGCCTCCCTCAACCGACACAGTCAGCCACACCGCTCGGAGTCACCTAGTGCAG”, the binding signal is 5310 fluorescence intensity (a.u.).

Turning to “CAAAATCACAGAAATTTTGACACGTGGCATATAATGCCAGCGGAGTCACCTAGTGCAG”, the binding signal is 21000 fluorescence intensity (a.u.). Regarding “ACCAGCTCTGTCCCTGACAGTACAGTCATATAATTCCCTCCGGAGTCACCTAGTGCAG”, the binding signal was 5950 fluorescence intensity (a.u.). For the sequence “GAAGACACGTTTATTTCGGATATGTATTTCCTACTAATACCGGAGTCACCTAGTGCAG”, the binding signal was 3140 fluorescence intensity (a.u.). Regarding “GCCGCCGCTGTCGCCATCCACGCTCCGAGCGCCACTGCCACGGAGTCACCTAGTGCAG”, the binding signal is 3490 fluorescence intensity (a.u.).

“TATTCTCGCCGTTGTTGCGTGCCACGCCTCCCCTCCTTCCCGGAGTCACCTAGTGCAG”: the binding signal is 3900 fluorescence intensity (a.u.). Turning to “ATGCAATCAACAAACTGTCATCATCTCCAAATTTGCTTCACGGAGTCACCTAGTGCAG”, the binding signal was 3240 fluorescence intensity (a.u.). As for “TTGTTAAATATACTTTCATGTACACGTATAGTTTTACATACGGAGTCACCTAGTGCAG”, the binding signal was 3590 fluorescence intensity (a.u.).

For the sequence “AGGATAAAGGGCTTTTGTGAAAATAAAATTCTACCCGGGGCGGAGTCACCTAGTGCAG”, the binding signal is 3550 fluorescence intensity (a.u.). With “GCCATCACCACCACCACCACCACCTCACCGCCGCCTCGCACGGAGTCACCTAGTGCAG”, the binding signal was 4150 fluorescence intensity (a.u.).

“TGATCACAGTAAGGACAGGTAGAGAGTCAGCAGTGCTTCTCGGAGTCACCTAGTGCAG”: the binding signal is 3380 fluorescence intensity (a.u.). On to “TCCAACGGCATCCCGCAACCCACGTGTCCCTCACCGCGCGCGGAGTCACCTAGTGCAG”, for which the binding signal is 6630 fluorescence intensity (a.u.). With “GGGTGTGTGGTGTATAAATCGCCAGCCTGTAGGCATGTGACGGAGTCACCTAGTGCAG”, the binding signal was 3730 fluorescence intensity (a.u.). Take “GCGGCGTCCAAGAACGGATTGAGATGGTGCTCCTCGCCATCGGAGTCACCTAGTGCAG”: the binding signal was 3140 fluorescence intensity (a.u.).
